A short description of the data set: Pharmacokinetic evaluation in mice (IV and oral). As to conditions: mouse, in vivo, CD1 female mice. How it is done: CD1 female mice were used as test animals, and the compounds were administered orally or intravenously (oral dose of 10 mg/kg; intravenous dose of 2 mg/kg).
Experiment protocol: Three mice per group for oral administration, and three mice per group for intravenous administration. Oral: Plasma samples were collected before administration (0 h) and at 0.25, 0.5, 1, 2, 4, 8, and 24 hours post-administration; Intravenous: Plasma samples were collected before administration (0 h) and at 0.083, 0.25, 0.5, 1, 2, 4, 8, and 24 hours post-administration. The plasma drug concentrations in mice after oral and intravenous administration were determined using LC/MS/MS, and the collected data were analyzed using AB Sciex QTRAP 6500 software.

In turn, `Cc1cc2cc(C(=O)N(Cc3ccc(C(F)(F)F)cn3)[C@H](C)c3ncccn3)ccc2nc1N` [AM9747, reference compound] gave a bioavailability (PO (10 mg/kg) vs IV (2 mg/kg)) of 61%. For the same molecule, where the note is “PO (10 mg/kg), plasma”, the peak level (Cmax) was 1060 ng/mL and the Tmax worked out at 15 min.

(Values after patent EP4644389A1, “PRMT5-MTA INHIBITOR” (Suzhou Puhe Biopharma Co., Ltd., priority 2022, dated 2024).)
